Experimental data reported in PubChem BioAssay AID1347076 (National Center for Advancing Translational Sciences (NCATS), 2019).
Hit rate of the full screen: of about 400,000 compounds, about 13,000 (3.2%) were called active. The shares of active, inactive and inconclusive entries below differ from those in the screen. Calls come from the whole dose curve; as a rule, active = well fitted cell-killing curve with a large enough effect; inconclusive = small, poorly fitted or top-dose-only effect, or effect the other way; inactive = flat fitted curve, though single readings scatter. Where the call is inconclusive, the potency comes from a doubtful curve fit.

Assay: qHTS assay for MDR1-selective chemotherapeutics: Primary screen using the drug-selected MDR subline cells KB-V1; note: nearly all actives have a fitted effect of over 60% in size
Details: KB-V1 MDR cells viability, CellTiter-Glo, 72 h; activity change, negative = cytotoxicity: at 46.1 µM (top of the series)
Procedure, shortened: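 Cytotoxicity via CellTiter-Glo luminescence after 72 h compound exposure at 37 degrees C. Cells: drug-selected KB-V1 line, DMEM phenol-red free plus 10% FBS. Compounds tested at multiple concentrations; normalized data fitted to concentration-effect curves.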
% is set by controls: 0 for no effect and ±100 for the full control effect; potency is the fitted concentration of half-maximal effect.

SMILES | Potency | activity change, negative = cytotoxicity
CCc1ccccc1NC(=O)CN1CCN(C(=O)c2cc(C3CC3)nn2-c2ccccc2)CC1 | inconclusive: 7.31 µM [cytotoxic, partial curve] | –
O=C(Nc1ccc(Cl)c(Cl)c1)c1ccc(Cn2cc(Cl)cn2)cc1 | – | inactive: -27.5%
Cc1cc(-n2c(C)cc(C(=O)CSc3nc4ccccc4c(=O)n3Cc3ccco3)c2C)no1 | inconclusive: 0.517 µM [cytotoxic, full curve, poor fit] | –
CCOc1ccccc1NC(=O)C(OC(=O)c1ccccc1NS(=O)(=O)c1cccs1)c1ccccc1 (stereo not drawn) | – | inactive: 0%
COc1ccccc1NS(=O)(=O)c1ccc(C(=O)NCc2ccco2)cc1 | inconclusive: 18.4 µM [cytotoxic, single point] | –
CCOc1cc(/C=N/NC(=O)CSc2nncn2C)ccc1OCc1cccc(C)c1 | inconclusive: 23.1 µM [cytotoxic, single point] | –
O=C(N/N=C/c1ccc2c(c1)OCO2)c1cccc2ccccc12 | inconclusive: 9.2 µM [cytotoxic, partial curve] | –
CCCCc1nn2c(=O)cc(COC(=O)c3ccco3)nc2s1 | inconclusive: 10.3 µM [rising, partial curve] | –
COc1ccccc1NC(=O)c1c([N+](=O)[O-])c(C(C)(C)C)nn1C | inconclusive: 29.1 µM [cytotoxic, single point] | –
CCCCCCCCC(=O)NNC(=O)c1c(O)c2ccccc2n(CCC)c1=O | inconclusive: 29.1 µM [cytotoxic, single point] | –
CCOc1cc(C(=O)NCCCn2ccnc2)cc(OCC)c1OCC | inconclusive: 23.1 µM [cytotoxic, single point] | –
O=C(C[n+]1ccccc1Br)c1ccc(-c2ccccc2)cc1 | inconclusive: 16.4 µM [cytotoxic, partial curve] | –
COC(=O)c1c(-c2cc(C)ccc2C)csc1NC(=O)C1CC=CCC1C(=O)O (stereo not drawn) | – | inactive: -3.95%
Cc1ccccc1N=C(c1ccccc1)C1C(=O)c2ccccc2C1=O | active: 20.6 µM | –
CCOc1ccc(NC(=O)C(c2ccccn2)N(C(=O)CCl)c2ccc(OC)cc2)cc1 (stereo not drawn) | inconclusive: 20.6 µM [cytotoxic, single point] | –
CC(OC(=O)c1ccc2c(c1)OCO2)C(=O)NC1CCCCC1C (stereo not drawn) | inconclusive: 11.6 µM [cytotoxic, partial curve] | –
CCCCC[C@H](C)N1C[C@@H](COCc2ccccc2)Oc2cc(N3CC[C@@H](N(C)C)C3)ccc2S1(=O)=O | inconclusive: 29.1 µM [cytotoxic, single point] | –
CCCCCc1c(O)nc(SCC(=O)NCC2CCCO2)[nH]c1=O (stereo not drawn) | inconclusive: 14.6 µM [rising, single point] | –
COCCn1c(SCC(=O)N2CCCCCC2)nc2c([nH]c3ccccc32)c1=O | inconclusive: 1.16 µM [cytotoxic, full curve] | –
CCCC(=O)C1=C(O)C(C(=O)OC)C(C)(C)CC1=Nc1ccc(N)cc1 (stereo not drawn) | – | inactive: -39.9%
COc1ccc(CN(C)C(=O)c2ccccc2Sc2ccccc2C#N)cc1OC | inconclusive: 18.4 µM [cytotoxic, partial curve, poor fit] | –
COc1ccc(OCC(=O)NC(=S)Nc2ccccc2F)cc1 | – | inactive: 26.7%

SMILES | Potency | activity change, negative = cytotoxicity
O=C(CC1S/C(=N/N=C/c2cccs2)NC1=O)Nc1ccc(Cl)c(Cl)c1 (stereo not drawn) | inconclusive: 20.6 µM [cytotoxic, single point] | –
CS(=O)(=O)N1CCN(c2ccccc2NC(=O)c2ccc(-c3ccc(Br)cc3)o2)CC1 | active: 2.59 µM | –
COc1ccc(CN2CCN(S(=O)(=O)c3ccc(F)cc3)CC2)c(OC)c1OC | inconclusive: 14.6 µM [cytotoxic, partial curve] | –
CC(C)C[C@@H]1COc2cc(N3CC[C@H](O)C3)ccc2S(=O)(=O)N1 | – | inactive: -6.54%
COC(=O)c1c(C)[nH]c(C(=O)CN(C)CC(=O)Nc2cccc(F)c2)c1C | – | inactive: 0%
Cc1cc(NS(=O)(=O)c2ccc(NC(=O)COc3ccc(Br)cc3)cc2)nc(C)n1 | – | inconclusive: -22.7%
CC(C)c1cccc(C(C)C)c1OC(=O)[C@H]1OC(c2ccc(Br)cc2)=C[C@@H]1c1ccc(Br)cc1 | inconclusive: 20.6 µM [cytotoxic, single point] | –
c1ccc(C(c2ccccc2)c2noc(CN3CCN(CC4CC4)CC3)n2)cc1 | – | inactive: 16%
Cc1cccc(NC(=O)c2n[nH]c([N+](=O)[O-])c2Br)c1C | inconclusive: 20.6 µM [cytotoxic, single point] | –
COc1cccc(CNC(=O)c2cccc(S(=O)(=O)N3CCN(c4ccc(F)cc4)CC3)c2)c1 | inconclusive: 18.4 µM [cytotoxic, single point] | –
CCC(C)Sc1nc2c(c(=O)[nH]1)C(c1cccs1)C1=C(CCCC1=O)N2 (stereo not drawn) | – | inactive: -11.8%
Cc1nc2c(C)cccc2cc1C(=O)N/N=C/c1ccc(N(C)C)cc1 | inconclusive: 29.1 µM [cytotoxic, single point] | –
Cc1ccc(NC(=O)c2ccc(C)cc2)cc1 | – | inactive: 0%
COc1ccc(NC(=O)CSc2nc3ccccc3c(=O)n2CCCN2CCC(C)CC2)c(OC)c1 | – | inactive: -14.6%
Cc1cc(C)nc(SCc2cc(=O)c(OC(=O)c3cccc([N+](=O)[O-])c3)co2)n1 | inconclusive: 18.4 µM [cytotoxic, single point] | –
Cc1cccc2c(=O)cc(C)n(Cc3ccccc3)c12 | inconclusive: 13 µM [cytotoxic, partial curve, poor fit] | –
Cc1ccc(S(=O)(=O)N2C3CCCCC3O[C@H]2CC(=O)OCc2ccccc2)cc1 (stereo partly drawn) | inconclusive: 16.4 µM [cytotoxic, partial curve, poor fit] | –
COc1ccc2oc(C(=O)C3CC3)c(N)c2c1 | – | inactive: -1.91%
CNC(=O)C[C@H]1C(=O)N(CCc2ccccc2)C[C@@H]1Cc1ccccc1 | inconclusive: 18.4 µM [cytotoxic, single point] | –
CCCc1cc(=O)[nH]c(SCC(=O)c2cc(C)n(C3CC3)c2C)n1 | inconclusive: 18.4 µM [cytotoxic, single point] | –
COc1cccc(NC(=O)c2csc3c2CCCC3)c1 | inconclusive: 29.1 µM [cytotoxic, single point] | –

Whole records from above:
CCOc1cc(/C=N/NC(=O)CSc2nncn2C)ccc1OCc1cccc(C)c1 in the list: Potency: inconclusive: 23.1 µM [cytotoxic, single point]
COC(=O)c1c(-c2cc(C)ccc2C)csc1NC(=O)C1CC=CCC1C(=O)O (stereo not drawn) in the list: activity change, negative = cytotoxicity: inactive: -3.95%
